Laboratory results: PMC12682122
These are yes or no findings as the source states them, for the method shown. In cells and extracts the contact can be indirect. Here binding means that the protein was enriched with, or labelled near, the bait; the list need not be complete.

The chains behind the UniProt entries cited, without tags or fusion partners. Where a name states a change or a piece, a line headed by the entry shows the natural chain unless it says otherwise.
UniProt Q13200: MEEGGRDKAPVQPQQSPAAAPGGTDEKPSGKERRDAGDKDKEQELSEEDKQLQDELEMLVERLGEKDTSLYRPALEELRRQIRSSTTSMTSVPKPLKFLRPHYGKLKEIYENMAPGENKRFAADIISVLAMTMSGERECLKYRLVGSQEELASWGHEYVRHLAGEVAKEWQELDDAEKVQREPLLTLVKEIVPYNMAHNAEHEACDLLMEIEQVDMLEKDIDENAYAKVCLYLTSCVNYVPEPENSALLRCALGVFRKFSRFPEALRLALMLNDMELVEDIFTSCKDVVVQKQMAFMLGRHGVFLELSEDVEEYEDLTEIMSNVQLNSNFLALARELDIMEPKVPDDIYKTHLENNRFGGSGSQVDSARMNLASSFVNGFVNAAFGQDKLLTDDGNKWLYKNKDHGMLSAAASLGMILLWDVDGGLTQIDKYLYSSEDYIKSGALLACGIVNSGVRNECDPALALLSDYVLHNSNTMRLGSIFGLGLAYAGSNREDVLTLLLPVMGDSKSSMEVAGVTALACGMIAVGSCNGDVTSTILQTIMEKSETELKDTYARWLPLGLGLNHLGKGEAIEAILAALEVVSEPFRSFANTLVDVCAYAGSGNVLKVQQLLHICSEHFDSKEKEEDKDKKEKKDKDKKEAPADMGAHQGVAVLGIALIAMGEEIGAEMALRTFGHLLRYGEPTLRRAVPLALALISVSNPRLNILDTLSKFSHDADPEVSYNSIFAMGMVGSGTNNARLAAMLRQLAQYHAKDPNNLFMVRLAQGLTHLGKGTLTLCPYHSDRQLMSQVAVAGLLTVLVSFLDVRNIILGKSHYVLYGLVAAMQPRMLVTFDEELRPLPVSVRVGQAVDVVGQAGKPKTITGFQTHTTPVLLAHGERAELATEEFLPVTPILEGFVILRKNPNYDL
UniProt P55036: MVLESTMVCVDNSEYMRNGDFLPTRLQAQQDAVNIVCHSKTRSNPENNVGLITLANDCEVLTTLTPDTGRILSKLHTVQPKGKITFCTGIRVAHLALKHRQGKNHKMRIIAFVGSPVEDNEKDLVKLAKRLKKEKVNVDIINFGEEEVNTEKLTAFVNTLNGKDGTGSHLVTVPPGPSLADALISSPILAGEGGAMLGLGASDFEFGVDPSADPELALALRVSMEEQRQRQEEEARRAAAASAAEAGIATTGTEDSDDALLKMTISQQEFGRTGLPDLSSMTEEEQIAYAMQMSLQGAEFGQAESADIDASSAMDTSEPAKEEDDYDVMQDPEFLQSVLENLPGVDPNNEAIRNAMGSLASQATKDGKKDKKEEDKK

Biological target: biotin-tagged PSMD2 (RPN1) (human) (UniProt Q13200)
Assay: affinity purification with mass spectrometry; proteasomes pulled down through biotin-tagged PSMD2 (RPN1) from engineered HCT116 cells; members identified by (crosslinking) MS

For “PSMD4 (RPN10) (from UniProt P55036 1-377)”, which binding is on record?
The binding was “binds”.
